No constants are given. Whether binding was seen depends on the method and setting. In cells and extracts the contact can be indirect. Some entries that bind do so weakly or less than the wild type.

Chains of the proteins cited; added tags and fusions are not shown.
UniProt P35820: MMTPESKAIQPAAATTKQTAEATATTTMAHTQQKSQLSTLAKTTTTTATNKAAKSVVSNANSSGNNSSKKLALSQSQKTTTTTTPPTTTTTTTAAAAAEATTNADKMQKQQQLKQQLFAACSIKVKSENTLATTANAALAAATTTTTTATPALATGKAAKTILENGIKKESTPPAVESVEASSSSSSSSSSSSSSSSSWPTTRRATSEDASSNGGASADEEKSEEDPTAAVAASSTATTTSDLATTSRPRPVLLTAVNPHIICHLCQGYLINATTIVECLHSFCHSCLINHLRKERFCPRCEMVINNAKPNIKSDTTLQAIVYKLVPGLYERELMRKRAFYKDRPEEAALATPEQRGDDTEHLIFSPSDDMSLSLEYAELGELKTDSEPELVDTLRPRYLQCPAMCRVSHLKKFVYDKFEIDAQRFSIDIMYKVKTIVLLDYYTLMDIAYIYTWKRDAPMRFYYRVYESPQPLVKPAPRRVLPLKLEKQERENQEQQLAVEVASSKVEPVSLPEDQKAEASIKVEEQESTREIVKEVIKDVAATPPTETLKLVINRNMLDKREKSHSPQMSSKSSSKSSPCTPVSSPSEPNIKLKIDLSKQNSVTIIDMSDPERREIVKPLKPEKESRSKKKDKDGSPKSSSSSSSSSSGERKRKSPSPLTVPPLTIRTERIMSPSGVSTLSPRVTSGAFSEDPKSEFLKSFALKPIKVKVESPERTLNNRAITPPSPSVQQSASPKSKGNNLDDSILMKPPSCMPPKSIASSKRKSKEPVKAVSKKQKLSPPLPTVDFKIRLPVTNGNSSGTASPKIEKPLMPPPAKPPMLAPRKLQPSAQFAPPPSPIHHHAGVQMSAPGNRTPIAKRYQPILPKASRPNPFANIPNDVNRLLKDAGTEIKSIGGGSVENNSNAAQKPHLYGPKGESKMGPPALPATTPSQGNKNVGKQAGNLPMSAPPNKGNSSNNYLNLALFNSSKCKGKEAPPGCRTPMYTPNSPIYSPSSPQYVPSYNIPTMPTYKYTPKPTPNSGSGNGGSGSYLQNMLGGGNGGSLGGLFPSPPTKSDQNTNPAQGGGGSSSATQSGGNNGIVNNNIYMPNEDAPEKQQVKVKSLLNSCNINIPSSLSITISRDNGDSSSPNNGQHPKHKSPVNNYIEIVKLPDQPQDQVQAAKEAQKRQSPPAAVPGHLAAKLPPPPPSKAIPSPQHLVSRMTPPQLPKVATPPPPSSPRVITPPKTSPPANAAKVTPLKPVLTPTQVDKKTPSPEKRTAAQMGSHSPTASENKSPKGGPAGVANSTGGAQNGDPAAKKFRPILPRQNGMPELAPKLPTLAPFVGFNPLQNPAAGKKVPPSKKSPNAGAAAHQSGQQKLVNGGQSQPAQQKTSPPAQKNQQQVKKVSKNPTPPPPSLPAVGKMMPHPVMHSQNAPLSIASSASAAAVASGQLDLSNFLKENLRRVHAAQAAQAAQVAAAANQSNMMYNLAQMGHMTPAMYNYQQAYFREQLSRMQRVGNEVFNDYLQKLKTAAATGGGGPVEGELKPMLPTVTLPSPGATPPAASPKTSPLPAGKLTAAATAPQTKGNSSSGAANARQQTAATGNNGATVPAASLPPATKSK

The assay addresses T1, RING1 [the product of Sex combs extra (Sce) gene] (D. melanogaster (endogenous in embryos)) (UniProt Q9VB08).
T1 sequence: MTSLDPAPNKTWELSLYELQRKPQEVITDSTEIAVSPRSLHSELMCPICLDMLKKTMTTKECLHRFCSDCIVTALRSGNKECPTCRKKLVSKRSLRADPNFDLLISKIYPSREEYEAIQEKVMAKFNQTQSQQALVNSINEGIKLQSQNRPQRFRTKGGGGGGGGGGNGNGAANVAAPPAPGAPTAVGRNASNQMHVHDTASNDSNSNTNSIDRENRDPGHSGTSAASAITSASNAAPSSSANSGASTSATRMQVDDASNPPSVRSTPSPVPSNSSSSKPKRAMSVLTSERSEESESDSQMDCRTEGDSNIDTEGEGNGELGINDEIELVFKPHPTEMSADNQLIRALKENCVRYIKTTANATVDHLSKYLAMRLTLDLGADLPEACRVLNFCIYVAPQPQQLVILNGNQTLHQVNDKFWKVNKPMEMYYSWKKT
Briefly: co-IP; total nuclear protein extracts of embryos (wild type; Siesta-Strep; RYBP-KO, Siesta-Strep), dialysed against 25 mM Hepes-KOH pH 7.6, 0.1 M KCl; anti-RING1 cross-linked to Dynabeads or Strep-Tactin Sepharose, 0.02% NP-40, overnight at 4°C; Western blot. Background: A western blot detects proteins with antibodies after separation by electrophoresis.

Consider “Posterior sex combs (Psc) (from UniProt P35820 1-1601)”, for which the binding result is “binds”.

B1: Polycomb (Pc) (protein, UniProt P26017 1-390)
chain: MTGRGKGSKGKLGRDNATDDPVDLVYAAEKIIQKRVKKGVVEYRVKWKGWNQRYNTWEPEVNILDRRLIDIYEQTNKSSGTPSKRGIKKKEKEPDPEPESEEDEYTFTENDVDTHQATTSSATHDKESKKEKKHHHHHHHHHHIKSERNSGRRSESPLTHHHHHHHHESKRQRIDHSSSSNSSFTHNSFVPEPDSNSSSSEDQPLIGTKRKAEVLKESGKIGVTIKTSPDGPTIKPQPTQQVTPSQQQPFQDQQQAEKIASEAATQLKSEQQATPLATEAINTTPAESGAEEEEVANEEGNQQAPQVPSENNNIPKPCNNLAINQKQPLTPLSPRALPPRFWLPAKCNISNRVVITDVTVNLETVTIRECKTERGFFRERDMKGDSSPVA
Consider B1, for which the binding entry is recorded as “binds”.

Values taken from PMC12965321.
